This is one part of the list.
Compound: c1cn2cc(-c3ccc4cn[nH]c4c3)nc(Nc3ccc(N4CCOCC4)cc3)c2n1 [entospletinib]
Assay: log2 fold change, soluble protein after heating vs DMSO (PISA); higher = thermal stabilisation; K562 cells, 10 uM, 30 min; active = over 0.2 and 3.5 SD of the protein, either way, in both replicates (recomputed)
Method in brief: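 Soluble protein was defined as the supernatant after 21,000xg for 90 min. It came from K562 cells at 2×10^6 cells/mL given 10 μM compound for 30 min, heated in aliquots for 3 min across 48°C-58°C, pooled, and extracted in PBS with 0.5% NP-40 at 4°C, and was quantified by TMTpro 16plex LC-MS/MS with equalised channel sums. Thermal stability against control samples, from duplicates, is reported as log2 fold change.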

Amino acid sequences for entries named in this document (tags omitted). A change or cut given only in a name is not applied to a line headed by its entry.
UniProt Q3YEC7: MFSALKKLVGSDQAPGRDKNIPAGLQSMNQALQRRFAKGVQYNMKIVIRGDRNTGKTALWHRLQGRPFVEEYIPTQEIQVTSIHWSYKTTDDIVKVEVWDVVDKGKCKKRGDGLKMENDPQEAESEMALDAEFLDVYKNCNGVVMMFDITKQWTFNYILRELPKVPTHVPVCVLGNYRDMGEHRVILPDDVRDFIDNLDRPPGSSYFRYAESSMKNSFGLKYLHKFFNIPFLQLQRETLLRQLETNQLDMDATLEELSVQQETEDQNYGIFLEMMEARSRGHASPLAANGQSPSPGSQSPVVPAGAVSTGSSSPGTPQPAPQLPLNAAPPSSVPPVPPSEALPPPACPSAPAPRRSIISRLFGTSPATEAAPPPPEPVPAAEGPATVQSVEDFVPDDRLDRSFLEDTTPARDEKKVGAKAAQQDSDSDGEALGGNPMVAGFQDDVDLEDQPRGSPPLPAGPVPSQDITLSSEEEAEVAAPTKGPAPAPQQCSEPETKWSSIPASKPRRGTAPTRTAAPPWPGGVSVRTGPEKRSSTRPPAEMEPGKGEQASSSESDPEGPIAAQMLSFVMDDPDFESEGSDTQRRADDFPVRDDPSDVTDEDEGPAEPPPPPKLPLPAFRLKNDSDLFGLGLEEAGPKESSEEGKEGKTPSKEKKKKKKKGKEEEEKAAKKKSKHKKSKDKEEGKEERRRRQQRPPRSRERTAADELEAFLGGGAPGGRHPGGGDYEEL
UniProt Q13636: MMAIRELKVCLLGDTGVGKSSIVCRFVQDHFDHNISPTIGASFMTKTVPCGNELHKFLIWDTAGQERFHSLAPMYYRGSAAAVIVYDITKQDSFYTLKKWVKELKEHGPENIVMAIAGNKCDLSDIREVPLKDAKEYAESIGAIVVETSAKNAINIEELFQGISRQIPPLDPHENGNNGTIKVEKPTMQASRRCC
UniProt P28749: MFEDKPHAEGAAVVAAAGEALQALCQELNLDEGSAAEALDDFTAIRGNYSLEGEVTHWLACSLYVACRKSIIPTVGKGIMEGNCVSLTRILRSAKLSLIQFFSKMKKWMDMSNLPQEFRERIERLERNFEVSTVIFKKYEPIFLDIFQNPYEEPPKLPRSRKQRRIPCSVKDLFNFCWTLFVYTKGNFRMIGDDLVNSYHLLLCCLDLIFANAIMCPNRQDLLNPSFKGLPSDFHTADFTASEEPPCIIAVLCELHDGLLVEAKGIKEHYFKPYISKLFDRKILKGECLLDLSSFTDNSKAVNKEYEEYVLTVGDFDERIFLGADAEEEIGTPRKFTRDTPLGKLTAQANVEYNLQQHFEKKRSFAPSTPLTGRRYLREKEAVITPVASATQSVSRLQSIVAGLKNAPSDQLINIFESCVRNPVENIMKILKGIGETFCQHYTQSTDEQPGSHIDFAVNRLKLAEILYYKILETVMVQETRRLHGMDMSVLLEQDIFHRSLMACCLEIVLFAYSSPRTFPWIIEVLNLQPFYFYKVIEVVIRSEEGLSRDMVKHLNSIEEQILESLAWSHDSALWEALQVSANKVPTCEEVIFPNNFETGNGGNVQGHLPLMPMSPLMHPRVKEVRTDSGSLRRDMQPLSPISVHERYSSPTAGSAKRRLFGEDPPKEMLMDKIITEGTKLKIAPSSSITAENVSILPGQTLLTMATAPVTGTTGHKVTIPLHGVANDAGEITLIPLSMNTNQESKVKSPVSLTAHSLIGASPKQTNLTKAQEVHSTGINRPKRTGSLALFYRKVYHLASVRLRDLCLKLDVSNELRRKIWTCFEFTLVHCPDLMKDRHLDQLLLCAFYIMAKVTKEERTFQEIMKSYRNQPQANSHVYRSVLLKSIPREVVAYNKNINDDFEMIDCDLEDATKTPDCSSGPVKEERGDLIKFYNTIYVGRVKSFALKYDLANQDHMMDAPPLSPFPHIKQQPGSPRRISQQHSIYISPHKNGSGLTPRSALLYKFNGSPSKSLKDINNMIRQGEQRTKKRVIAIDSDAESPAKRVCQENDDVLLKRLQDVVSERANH
UniProt Q96E17: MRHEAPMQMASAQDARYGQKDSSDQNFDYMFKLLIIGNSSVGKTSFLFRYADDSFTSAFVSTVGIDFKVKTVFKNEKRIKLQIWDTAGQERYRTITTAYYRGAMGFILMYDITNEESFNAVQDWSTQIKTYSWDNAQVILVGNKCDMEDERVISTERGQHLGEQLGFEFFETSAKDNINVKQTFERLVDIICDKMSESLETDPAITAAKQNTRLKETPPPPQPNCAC
UniProt Q96D70: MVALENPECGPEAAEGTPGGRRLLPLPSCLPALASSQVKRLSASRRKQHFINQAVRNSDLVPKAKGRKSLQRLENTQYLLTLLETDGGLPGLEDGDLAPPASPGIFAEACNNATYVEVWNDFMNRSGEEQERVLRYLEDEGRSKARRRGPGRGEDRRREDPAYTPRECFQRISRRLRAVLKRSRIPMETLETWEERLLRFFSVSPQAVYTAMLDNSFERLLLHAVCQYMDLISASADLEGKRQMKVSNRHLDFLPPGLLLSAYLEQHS
UniProt Q9NW13: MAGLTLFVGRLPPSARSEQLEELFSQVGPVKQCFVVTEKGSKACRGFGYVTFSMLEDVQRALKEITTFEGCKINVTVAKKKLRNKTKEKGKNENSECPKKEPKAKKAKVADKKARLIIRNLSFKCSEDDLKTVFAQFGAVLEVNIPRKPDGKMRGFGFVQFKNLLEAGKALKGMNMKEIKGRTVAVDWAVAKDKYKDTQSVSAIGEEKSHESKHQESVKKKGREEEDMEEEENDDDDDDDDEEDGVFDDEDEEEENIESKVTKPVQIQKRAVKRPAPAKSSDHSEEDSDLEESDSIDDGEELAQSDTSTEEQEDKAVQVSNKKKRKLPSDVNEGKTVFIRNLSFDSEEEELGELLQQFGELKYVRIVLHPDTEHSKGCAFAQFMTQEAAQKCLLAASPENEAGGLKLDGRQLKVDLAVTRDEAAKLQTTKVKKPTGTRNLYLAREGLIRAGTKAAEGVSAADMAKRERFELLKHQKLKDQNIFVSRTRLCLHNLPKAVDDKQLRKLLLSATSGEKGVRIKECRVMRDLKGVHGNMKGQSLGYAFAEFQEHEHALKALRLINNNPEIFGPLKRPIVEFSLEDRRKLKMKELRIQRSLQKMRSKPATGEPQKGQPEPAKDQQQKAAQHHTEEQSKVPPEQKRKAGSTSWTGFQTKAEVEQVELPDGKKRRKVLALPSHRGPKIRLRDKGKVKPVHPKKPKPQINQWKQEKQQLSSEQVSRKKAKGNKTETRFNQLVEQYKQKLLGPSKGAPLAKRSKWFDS
UniProt Q86WH2: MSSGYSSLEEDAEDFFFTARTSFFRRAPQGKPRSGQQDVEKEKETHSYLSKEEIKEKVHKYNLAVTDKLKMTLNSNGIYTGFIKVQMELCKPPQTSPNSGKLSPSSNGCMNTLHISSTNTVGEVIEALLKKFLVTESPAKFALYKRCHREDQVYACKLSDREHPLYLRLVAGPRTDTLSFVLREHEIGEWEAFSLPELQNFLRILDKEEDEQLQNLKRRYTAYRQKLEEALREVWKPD
UniProt Q9H0H5: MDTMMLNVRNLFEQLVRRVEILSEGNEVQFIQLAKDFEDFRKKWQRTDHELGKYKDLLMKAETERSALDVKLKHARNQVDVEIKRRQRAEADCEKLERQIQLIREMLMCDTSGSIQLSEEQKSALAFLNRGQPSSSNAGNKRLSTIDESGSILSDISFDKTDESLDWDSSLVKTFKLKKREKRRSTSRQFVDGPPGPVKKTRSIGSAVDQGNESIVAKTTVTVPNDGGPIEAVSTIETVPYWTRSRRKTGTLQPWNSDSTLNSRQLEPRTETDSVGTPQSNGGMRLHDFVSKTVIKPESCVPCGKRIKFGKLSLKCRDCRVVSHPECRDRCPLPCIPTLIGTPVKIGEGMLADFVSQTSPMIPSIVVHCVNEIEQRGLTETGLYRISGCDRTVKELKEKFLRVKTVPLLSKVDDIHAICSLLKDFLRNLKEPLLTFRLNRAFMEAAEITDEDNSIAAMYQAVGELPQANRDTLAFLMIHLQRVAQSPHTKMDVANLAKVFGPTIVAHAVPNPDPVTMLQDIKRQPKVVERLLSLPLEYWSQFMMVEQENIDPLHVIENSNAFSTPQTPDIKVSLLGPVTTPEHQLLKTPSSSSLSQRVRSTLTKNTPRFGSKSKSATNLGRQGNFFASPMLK
UniProt Q6GYQ0: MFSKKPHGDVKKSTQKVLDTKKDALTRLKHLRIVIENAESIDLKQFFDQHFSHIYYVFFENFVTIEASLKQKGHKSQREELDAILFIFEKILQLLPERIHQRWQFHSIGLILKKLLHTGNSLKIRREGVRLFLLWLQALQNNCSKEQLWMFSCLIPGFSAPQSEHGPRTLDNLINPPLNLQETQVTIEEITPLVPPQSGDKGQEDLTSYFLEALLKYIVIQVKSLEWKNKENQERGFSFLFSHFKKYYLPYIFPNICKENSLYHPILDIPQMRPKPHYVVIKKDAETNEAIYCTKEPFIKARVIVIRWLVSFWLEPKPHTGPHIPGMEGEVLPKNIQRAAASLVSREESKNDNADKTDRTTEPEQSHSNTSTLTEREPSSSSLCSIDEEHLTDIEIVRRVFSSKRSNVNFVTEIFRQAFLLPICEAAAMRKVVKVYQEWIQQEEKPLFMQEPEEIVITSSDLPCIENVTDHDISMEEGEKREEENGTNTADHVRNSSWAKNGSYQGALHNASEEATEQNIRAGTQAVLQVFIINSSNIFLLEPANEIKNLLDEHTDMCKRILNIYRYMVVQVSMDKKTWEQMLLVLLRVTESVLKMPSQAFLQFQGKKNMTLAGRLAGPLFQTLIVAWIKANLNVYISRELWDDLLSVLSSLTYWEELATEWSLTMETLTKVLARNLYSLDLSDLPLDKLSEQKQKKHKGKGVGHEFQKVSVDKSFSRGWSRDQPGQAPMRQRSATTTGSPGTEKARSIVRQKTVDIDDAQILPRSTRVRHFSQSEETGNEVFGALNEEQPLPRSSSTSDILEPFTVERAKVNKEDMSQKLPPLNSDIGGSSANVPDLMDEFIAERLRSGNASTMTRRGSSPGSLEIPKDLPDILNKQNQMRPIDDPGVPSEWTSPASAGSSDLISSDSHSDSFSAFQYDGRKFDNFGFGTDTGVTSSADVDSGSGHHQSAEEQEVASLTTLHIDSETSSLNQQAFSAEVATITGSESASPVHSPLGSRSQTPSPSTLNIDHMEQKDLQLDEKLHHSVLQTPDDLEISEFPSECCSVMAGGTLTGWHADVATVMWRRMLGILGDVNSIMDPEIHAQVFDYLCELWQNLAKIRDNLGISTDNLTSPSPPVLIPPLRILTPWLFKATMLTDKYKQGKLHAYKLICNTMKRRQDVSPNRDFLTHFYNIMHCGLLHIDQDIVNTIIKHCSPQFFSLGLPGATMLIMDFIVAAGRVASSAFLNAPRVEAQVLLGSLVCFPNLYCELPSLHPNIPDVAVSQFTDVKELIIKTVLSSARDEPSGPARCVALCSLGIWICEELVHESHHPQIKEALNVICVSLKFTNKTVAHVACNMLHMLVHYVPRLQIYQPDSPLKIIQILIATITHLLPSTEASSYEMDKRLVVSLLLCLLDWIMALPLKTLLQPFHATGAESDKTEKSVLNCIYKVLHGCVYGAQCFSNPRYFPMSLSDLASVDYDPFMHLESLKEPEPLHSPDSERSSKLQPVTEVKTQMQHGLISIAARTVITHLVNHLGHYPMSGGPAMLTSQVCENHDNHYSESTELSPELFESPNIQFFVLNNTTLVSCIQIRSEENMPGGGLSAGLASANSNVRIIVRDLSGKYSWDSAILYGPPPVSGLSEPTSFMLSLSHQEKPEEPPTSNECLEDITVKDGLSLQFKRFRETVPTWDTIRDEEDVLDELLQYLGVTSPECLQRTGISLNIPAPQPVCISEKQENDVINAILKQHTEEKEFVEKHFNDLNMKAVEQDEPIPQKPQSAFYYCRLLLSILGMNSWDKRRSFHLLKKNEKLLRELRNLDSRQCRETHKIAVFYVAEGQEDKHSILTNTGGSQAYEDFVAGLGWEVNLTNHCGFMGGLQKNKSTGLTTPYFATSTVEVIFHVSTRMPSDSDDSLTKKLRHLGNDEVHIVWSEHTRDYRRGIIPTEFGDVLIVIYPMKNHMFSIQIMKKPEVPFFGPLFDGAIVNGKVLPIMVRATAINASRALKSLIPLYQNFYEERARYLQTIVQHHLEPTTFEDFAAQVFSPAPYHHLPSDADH
UniProt P61224: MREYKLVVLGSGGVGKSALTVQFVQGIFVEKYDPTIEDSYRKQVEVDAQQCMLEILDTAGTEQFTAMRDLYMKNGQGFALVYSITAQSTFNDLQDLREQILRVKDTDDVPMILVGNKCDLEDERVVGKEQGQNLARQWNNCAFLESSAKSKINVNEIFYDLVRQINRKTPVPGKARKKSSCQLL
UniProt Q13637: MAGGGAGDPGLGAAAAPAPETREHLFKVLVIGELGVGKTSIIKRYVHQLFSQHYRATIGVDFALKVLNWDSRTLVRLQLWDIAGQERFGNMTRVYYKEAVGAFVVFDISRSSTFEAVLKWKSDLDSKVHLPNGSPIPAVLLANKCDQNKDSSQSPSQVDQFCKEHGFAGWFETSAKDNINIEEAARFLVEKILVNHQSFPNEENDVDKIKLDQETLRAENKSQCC

log2 fold change, inactive:
RAB43 (UniProt Q86YS6) -0.061, RABL6 (UniProt Q3YEC7) -0.022, RBBP4 isoform 2 (UniProt Q09028) -0.097, RAB31 (UniProt Q13636) -0.008, RANBP3 isoform 2 (UniProt Q9H6Z4) -0.069, RAC2 (UniProt P15153) 0.014, RBL1 (UniProt P28749) -0.258, RAB3C (UniProt Q96E17) 0.047, R3HDM4 (UniProt Q96D70) -0.053, RBM28 (UniProt Q9NW13) 0.22, RAB27A (UniProt P51159) -0.044, RACK1 (UniProt D6RF23) -0.054, RASSF3 (UniProt Q86WH2) 0.016, RACGAP1 (UniProt Q9H0H5) -0.01, RAN (UniProt P62826) 0.007, RALGAPB (UniProt Q86X10) -0.145, RABGAP1 (UniProt Q9Y3P9) 0.007, RALGAPA1 isoform 6 (UniProt Q6GYQ0) 0.238, RAP1B (UniProt P61224) 0.004, RAB32 (UniProt Q13637) -0.068, RAB1A (UniProt P62820) 0.005, RAB5A (UniProt P20339) -0.04, RAP1B (UniProt F5GZG1) 0.042
